Reference: PMC8373943
No constants are given. Whether binding was seen depends on the method and setting. In cells and extracts the contact can be indirect.

Target: H3K9me3 peptide (first 17 amino acids from histone H3, trimethylated on lysine 9, followed by two glycines and a biotinylated lysine) (UniProt P68431)
Experiment: pull-down; biotinylated histone H3 peptide on Dynabeads MyOne Streptavidin C1; 500 ug nuclear extract, 150 mM NaCl, 50 mM Tris pH 8, 2% NP40, 0.5 mM DTT, 10 uM ZnCl2, 3 h 4 °C; washes with 350 mM NaCl; western blot; only the target purified

B1: FLYWCH1 in crude nuclear extracts (protein, UniProt Q4VC44 1-716)
chain: MPLPEPSEQEGESVKAGQEPSPKPGTDVIPAAPRKPREFSKLVLLTASDQDEDGVGSKPQEVHCVLSLEMAGPATLASTLQILPVEEQGGVVQPALEMPEQKCSKLDAAAPQSLEFLRTPFGGRLLVLESFLYKQEKAVGDKVYWKCRQHAELGCRGRAITRGLRATVMRGHCHAPDEQGLEARRQREKLPSLALPEGLGEPQGPEGPGGRVEEPLEGVGPWQCPEEPEPTPGLVLSKPALEEEEAPRALSLLSLPPKKRSILGLGQARPLEFLRTCYGGSFLVHESFLYKREKAVGDKVYWTCRDHALHGCRSRAITQGQRVTVMRGHCHQPDMEGLEARRQQEKAVETLQAGQDGPGSQVDTLLRGVDSLLYRRGPGPLTLTRPRPRKRAKVEDQELPTQPEAPDEHQDMDADPGGPEFLKTPLGGSFLVYESFLYRREKAAGEKVYWTCRDQARMGCRSRAITQGRRVTVMRGHCHPPDLGGLEALRQREKRPNTAQRGSPGGPEFLKTPLGGSFLVYESFLYRREKAAGEKVYWTCRDQARMGCRSRAITQGRRVMVMRRHCHPPDLGGLEALRQREHFPNLAQWDSPDPLRPLEFLRTSLGGRFLVHESFLYRKEKAAGEKVYWMCRDQARLGCRSRAITQGHRIMVMRSHCHQPDLAGLEALRQRERLPTTAQQEDPEKIQVQLCFKTCSPESQQIYGDIKDVRLDGESQ
- binding: no binding
